Results on three substances are retold here after patent publication US20100098681A1.

By UniProt entry, the sequences of proteins in these tests, tags left out. Residues count along the entry.
UniProt P01133, residues 971-1023: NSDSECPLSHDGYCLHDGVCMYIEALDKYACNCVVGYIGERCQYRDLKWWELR

The target in experiment [1] is sEGFR-MMB (dimeric sEGFR mimetibody) (human). Kind of experiment: phage ELISA, coated sEGFR-MMB.
The target in experiment [2] is biotinylated sEGFR-MMB (human). Nature of the experiment: phage ELISA, biotinylated sEGFR-MMB on streptavidin. For orientation: In an ELISA, binding on a coated surface is turned into a signal by an enzyme label.
Experiment [3] concerns the target sEGFR-MMB (dimeric sEGFR mimetibody) (human). Kind of experiment: phage ELISA, luminescence; sEGFR-MMB coated on the wells [panel A].
Experiment [4] concerns the target Control-MMB (CNTO 360) (Homo sapiens (Human)) [IgG part: P0DOX5]. Kind of experiment: phage ELISA, luminescence; Control-MMB coated on the wells [panel A].
The target of experiment [5] is biotinylated sEGFR-MMB (human). Nature of the experiment: phage ELISA, luminescence; biotinylated receptor captured on streptavidin [panel C].
Experiment [6] deals with sEGFR-MMB (dimeric sEGFR mimetibody) (human). Kind of experiment: mock phage panning on sEGFR-MMB, three rounds, PCR screening.

No constants are given. Whether binding was seen depends on the method and setting. Some binding calls cover weakened binding; strength is not graded here.

With “pIX EGF-phage (from UniProt P01133 971-1023; P69538 1-32) (ligand)”, the binding result was “binds” in experiment [1]; “binds” in experiment [2]; “binds” in experiment [3]; “no binding” in experiment [4]; “binds” in experiment [5].
Turning to “pIII EGF-phage (from UniProt P01133 971-1023; P69168 19-424) (ligand)”, the binding entry in experiment [1] is on record as “binds”.
As for “Phage displaying EGF (coat protein not stated) (from UniProt P01133 971-1023) (ligand)”, in experiment [6], the binding result is “binds”.
